Reference: publication doi:10.1101/679936
These are yes or no findings as the source states them, for the method shown. Binding seen in cells or lysates may run through a third protein. Some entries that bind do so weakly or less than the wild type. Where a sequence is shown, tags or fusion partners need not be part of it.

Key:
Experiment in all cases: co-IP
[1] = target: T1, FLAG-SCAP stably expressed in HeLa cells (hamster) (UniProt P97260)
T1 sequence: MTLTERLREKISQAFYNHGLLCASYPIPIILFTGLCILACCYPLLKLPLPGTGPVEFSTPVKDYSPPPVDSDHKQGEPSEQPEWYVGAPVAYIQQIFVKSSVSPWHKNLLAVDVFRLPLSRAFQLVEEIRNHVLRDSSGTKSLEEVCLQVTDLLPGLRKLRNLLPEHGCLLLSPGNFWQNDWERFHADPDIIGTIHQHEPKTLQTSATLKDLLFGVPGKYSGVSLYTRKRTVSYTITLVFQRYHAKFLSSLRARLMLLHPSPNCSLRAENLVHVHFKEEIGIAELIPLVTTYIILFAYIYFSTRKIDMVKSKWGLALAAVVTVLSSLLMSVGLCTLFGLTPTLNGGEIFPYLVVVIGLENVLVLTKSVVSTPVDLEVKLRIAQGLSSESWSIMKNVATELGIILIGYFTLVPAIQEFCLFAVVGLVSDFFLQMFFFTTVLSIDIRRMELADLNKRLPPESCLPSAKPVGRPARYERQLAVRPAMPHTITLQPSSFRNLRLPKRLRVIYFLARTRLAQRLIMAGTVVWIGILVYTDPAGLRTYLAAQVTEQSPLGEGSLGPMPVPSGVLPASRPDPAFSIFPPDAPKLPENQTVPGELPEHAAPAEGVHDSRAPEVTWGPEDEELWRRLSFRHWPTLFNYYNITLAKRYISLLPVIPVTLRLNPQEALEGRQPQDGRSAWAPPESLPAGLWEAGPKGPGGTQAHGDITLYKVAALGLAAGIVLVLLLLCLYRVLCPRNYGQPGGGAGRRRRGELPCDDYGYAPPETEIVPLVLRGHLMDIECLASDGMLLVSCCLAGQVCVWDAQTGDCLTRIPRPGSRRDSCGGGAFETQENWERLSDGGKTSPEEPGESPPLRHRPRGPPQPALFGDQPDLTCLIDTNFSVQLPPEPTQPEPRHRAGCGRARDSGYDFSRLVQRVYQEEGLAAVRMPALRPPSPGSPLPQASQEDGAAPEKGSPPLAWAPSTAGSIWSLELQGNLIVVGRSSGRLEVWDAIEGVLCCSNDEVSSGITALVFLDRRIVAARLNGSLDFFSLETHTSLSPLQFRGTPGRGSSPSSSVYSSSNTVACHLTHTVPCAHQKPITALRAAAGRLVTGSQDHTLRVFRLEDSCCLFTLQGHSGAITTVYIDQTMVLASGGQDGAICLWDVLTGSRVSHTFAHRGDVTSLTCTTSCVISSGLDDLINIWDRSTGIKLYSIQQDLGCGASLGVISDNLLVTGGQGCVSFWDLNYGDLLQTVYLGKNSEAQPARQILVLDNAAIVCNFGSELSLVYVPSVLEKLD

[2] = target: T2, FLAG-SREBP1a (UniProt P36956)
T2 sequence: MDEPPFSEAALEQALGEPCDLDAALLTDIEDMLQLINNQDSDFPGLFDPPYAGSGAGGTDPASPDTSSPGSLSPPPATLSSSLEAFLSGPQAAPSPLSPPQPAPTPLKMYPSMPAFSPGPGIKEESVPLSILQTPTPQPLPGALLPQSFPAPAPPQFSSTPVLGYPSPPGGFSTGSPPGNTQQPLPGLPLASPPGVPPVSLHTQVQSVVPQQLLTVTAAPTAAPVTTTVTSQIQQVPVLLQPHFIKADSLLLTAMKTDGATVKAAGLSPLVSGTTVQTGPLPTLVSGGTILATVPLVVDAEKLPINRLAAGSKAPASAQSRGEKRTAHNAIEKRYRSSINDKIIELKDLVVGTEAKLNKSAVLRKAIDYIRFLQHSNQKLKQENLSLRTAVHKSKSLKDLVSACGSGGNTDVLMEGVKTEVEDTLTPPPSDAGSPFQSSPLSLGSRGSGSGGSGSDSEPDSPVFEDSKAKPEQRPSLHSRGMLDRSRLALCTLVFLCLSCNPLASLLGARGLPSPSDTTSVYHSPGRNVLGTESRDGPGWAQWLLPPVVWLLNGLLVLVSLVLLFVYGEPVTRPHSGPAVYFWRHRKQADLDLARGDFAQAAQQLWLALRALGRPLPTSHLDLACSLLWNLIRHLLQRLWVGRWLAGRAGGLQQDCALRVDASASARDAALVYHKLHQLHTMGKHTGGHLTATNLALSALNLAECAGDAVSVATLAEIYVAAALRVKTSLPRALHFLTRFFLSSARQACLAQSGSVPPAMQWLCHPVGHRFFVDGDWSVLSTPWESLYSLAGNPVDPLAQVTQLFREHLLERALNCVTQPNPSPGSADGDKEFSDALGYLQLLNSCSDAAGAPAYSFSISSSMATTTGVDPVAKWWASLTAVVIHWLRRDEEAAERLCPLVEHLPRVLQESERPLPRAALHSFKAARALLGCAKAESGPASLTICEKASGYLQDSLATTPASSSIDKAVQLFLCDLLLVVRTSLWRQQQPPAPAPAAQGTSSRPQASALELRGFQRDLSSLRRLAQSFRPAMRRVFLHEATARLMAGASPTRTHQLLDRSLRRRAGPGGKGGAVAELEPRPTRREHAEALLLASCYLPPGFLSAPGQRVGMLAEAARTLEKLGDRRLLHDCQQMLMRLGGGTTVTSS

[3] = target: T3, FLAG-SREBP2 (UniProt Q12772)
T3 sequence: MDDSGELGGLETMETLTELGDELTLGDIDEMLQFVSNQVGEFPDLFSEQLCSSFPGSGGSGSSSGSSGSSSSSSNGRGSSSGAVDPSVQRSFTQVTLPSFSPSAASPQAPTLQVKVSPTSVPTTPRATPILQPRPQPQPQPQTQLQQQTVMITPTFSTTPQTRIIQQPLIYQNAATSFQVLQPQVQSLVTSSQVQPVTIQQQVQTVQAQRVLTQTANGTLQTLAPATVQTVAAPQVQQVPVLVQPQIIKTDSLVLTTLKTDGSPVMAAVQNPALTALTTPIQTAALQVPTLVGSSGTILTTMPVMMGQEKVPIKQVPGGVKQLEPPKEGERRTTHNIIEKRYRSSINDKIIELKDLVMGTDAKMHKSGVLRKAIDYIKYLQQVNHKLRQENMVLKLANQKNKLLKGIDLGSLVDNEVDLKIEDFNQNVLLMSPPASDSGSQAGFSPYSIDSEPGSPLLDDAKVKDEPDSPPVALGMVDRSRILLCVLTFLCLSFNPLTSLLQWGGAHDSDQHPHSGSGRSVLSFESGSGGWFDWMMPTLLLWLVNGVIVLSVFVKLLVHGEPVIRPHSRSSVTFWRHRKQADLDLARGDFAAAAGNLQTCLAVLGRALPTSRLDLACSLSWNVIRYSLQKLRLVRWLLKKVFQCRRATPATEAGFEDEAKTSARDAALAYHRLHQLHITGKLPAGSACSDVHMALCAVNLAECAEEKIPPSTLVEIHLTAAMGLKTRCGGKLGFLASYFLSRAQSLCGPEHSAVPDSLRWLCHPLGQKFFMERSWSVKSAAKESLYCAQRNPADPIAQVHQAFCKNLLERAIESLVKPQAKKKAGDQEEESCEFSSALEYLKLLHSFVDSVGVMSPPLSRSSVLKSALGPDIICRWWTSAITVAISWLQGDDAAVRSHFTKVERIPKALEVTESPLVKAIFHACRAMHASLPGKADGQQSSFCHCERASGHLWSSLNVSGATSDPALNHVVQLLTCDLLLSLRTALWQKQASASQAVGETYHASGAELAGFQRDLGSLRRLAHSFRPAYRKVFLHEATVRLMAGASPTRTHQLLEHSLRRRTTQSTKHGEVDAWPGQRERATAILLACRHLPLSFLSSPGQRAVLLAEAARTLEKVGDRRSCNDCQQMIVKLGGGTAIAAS

B1: Sac1, endogenous in HeLa (protein, UniProt Q9NTJ5 1-587)
chain: MATAAYEQLKLHITPEKFYVEACDDGADDVLTIDRVSTEVTLAVKKDVPPSAVTRPIFGILGTIHLVAGNYLIVITKKIKVGEFFSHVVWKATDFDVLSYKKTMLHLTDIQLQDNKTFLAMLNHVLNVDGFYFSTTYDLTHTLQRLSNTSPEFQEMSLLERADQRFVWNGHLLRELSAQPEVHRFALPVLHGFITMHSCSINGKYFDWILISRRSCFRAGVRYYVRGIDSEGHAANFVETEQIVHYNGSKASFVQTRGSIPVFWSQRPNLKYKPLPQISKVANHMDGFQRHFDSQVIIYGKQVIINLINQKGSEKPLEQTFATMVSSLGSGMMRYIAFDFHKECKNMRWDRLSILLDQVAEMQDELSYFLVDSAGQVVANQEGVFRSNCMDCLDRTNVIQSLLARRSLQAQLQRLGVLHVGQKLEEQDEFEKIYKNAWADNANACAKQYAGTGALKTDFTRTGKRTHLGLIMDGWNSMIRYYKNNFSDGFRQDSIDLFLGNYSVDELESHSPLSVPRDWKFLALPIIMVVAFSMCIICLLMAGDTWTETLAYVLFWGVASIGTFFIILYNGKDFVDAPRLVQKEKID
binding [1]: binds weakly

B2: GFP-SCAP (protein, UniProt P97260 1-1276)
chain: T1 sequence
binding [2]: binds | binding [3]: binds

B3: Bap31, endogenous in HEK 293T (protein, UniProt P51572 1-246)
chain: MSLQWTAVATFLYAEVFVVLLLCIPFISPKRWQKIFKSRLVELLVSYGNTFFVVLIVILVLLVIDAVREIRKYDDVTEKVNLQNNPGAMEHFHMKLFRAQRNLYIAGFSLLLSFLLRRLVTLISQQATLLASNEAFKKQAESASEAAKKYMEENDQLKKGAAVDGGKLDVGNAEVKLEEENRSLKADLQKLKDELASTKQKLEKAENQVLAMRKQSEGLTKEYDRLLEEHAKLQAAVDGPMDKKEE
binding [2]: no binding | binding [3]: no binding

B4: Bap31, endogenous in HeLa (protein, UniProt P51572 1-246)
chain: B3 chain
binding [1]: no binding
